Laboratory results reported in publication PMC6949220.

Biological target: HA-STAT3 deletion construct with the transactivation domain (TAD)
Assay: co-IP; tagged proteins co-transfected (HEK293T where stated); lysates precipitated with anti-HA, anti-Flag or anti-Myc, immunoblot

- binding: binds
B1: Flag-DDIAS (DNA damage-induced apoptosis suppressor) (protein, UniProt Q8IXT1 1-998)
chain: MNRRRKFLLASVLALQNSSFIYPSCQKCFSRIILVSKRSNCPKCGSTGESGNANYRYKLSLKVAESNKLFVITVFGSCLDTFFGLTATGLHRYIQDPNKIPETLDNDTTQNLLTKAVETCFVGQSFIFGVTNFENQPGQGSDASNFLQQCSDHKRKAKALVACQIVLPDPGIAGFTVIDYFHQLLQTFNFRKLQCDSQAPNNHLLALDHSNSDLSSIYTSDSTSDFFKSCSKDTFSKFWQPSLEFTCIVSQLTDNDDFSASEQSKAFGTLQQNRKSISIAEATGSSSCHDPIQDSWSLVSYMDKKSTAEKLGKELGLQAKELSAVHSSHHEIGVNDSNLFSLEMREPLESSNTKSFHSAVEIKNRSQHELPCFQHHGIDTPTSLQKRSACCPPSLLRLEETASSSQDGDPQIWDDLPFSESLNKFLAVLESEIAVTQADVSSRKHHVDNDIDKFHADHSRLSVTPQRTTGALHTPPIALRSSQVIVKANCSKDDFLFNCKGNLSPSVEKESQPDNKVEAVSVNHNGRDMSEYFLPNPYLSALSSSSKDLETIVTLKKTIRISPHRESDHSSLNNKYLNGCGEISVSEMNEKLTTLCYRKYNDVSDLCKLENKQYCRWSKNQDDSFTICRKLTYPLETLCNSPNRSTNTLKEMPWGHINNNVTQSYSIGYEGSYDASADLFDDIAKEMDIATEITKKSQDILLKWGTSLAESHPSESDFSLRSLSEDFIQPSQKLSLQSLSDSRHSRTCSPTPHFQSDSEYNFENSQDFVPCSQSTPISGFHQTRIHGINRAFKKPVFYSDLDGNYEKIRIFPENDKQQASPSCPKNIKTPSQKIRSPIVSGVSQPDVFNHYPFAECHETDSDEWVPPTTQKIFPSDMLGFQGIGLGKCLAAYHFPDQQELPRKKLKHIRQGTNKGLIKKKLKNMLAAVVTKKKTHKYNCKSSGWISKCPDIQVLAAPQLHPILGPDSCSEVKCCLPFSEKGPPSVCETRSAWSPELFS

No constants are given. Whether binding was seen depends on the method and setting. In cells and extracts the contact can be indirect. Binding can be weak; no strength is given. Where a sequence is shown, tags or fusion partners need not be part of it.
